Measurements: publication PMC7819943, “Rice protein-binding microarrays: a tool to detect cis-acting elements near promoter regions in rice”
The other results are listed elsewhere or left out.

By UniProt entry, the sequences of proteins in these tests, tags left out.
UniProt Q0JBA9, entry or part of it: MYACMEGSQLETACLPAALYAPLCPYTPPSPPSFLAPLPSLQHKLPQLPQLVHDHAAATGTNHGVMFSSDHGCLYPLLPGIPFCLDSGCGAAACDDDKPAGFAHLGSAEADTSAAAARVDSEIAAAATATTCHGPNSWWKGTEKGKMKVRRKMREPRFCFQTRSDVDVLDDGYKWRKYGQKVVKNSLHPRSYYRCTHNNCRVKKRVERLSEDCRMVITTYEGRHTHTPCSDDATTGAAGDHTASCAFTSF

Molecular target: OsWRKY34 (Oryza sativa, UniProt Q0JBA9 1-250)
Assay: protein-binding microarray (RPBM); PBS, 2% BSA, 51.3 ng/ul salmon testes DNA, 50 uM zinc acetate, 200 nM TF, 25 C, 1 h; high values mean tight binding
Details: protein: recombinant; tags: N-terminal polyhistidine and DsRed monomer fusion (pET32a); label: CyDye5-dUTP incorporated in the synthesized complementary strand; 3' TTTTT single-stranded linker to array surface; dsDNA, one strand shown
Method in brief: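 Per-feature fluorescence intensity (arbitrary units), read on an Axon 4000B scanner, is the binding signal. Transcription factors carrying an N-terminal polyhistidine tag and DsRed fusion were expressed in E. coli BL21-CodonPlus and purified on Ni–NTA. A custom Agilent array, made double-stranded by primer extension with Cy5-dUTP and blocked with 2% BSA, was incubated with 200 nM protein in PBS, 2% BSA, salmon testes DNA and 50 µM zinc acetate at 25 °C for 1 h and then washed.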

In order of falling binding signal:
1. TATTTTAATGTATGATGCCGTTGACTTTTTAACCAACGTTCGGAGTCACCTAGTGCAG  27000 fluorescence intensity (a.u.)
2. TTGACGCCGTTGACTTTTCTAAACATATTTGACTATTCGTCGGAGTCACCTAGTGCAG  22300 fluorescence intensity (a.u.)
3. GCGGGATCGCGCGGGCGGCGGCGGCGGCGGGGAGGGGATGCGGAGTCACCTAGTGCAG  16900 fluorescence intensity (a.u.)
4. GCTCTATCTTTACTCGCCATTTAATCGTTGCCTCGCGCTCCGGAGTCACCTAGTGCAG  16900 fluorescence intensity (a.u.)
5. GGTTGGGAAAAAATTGGGGTTGGTTTATTCTTCTTGTTGTCGGAGTCACCTAGTGCAG  15900 fluorescence intensity (a.u.)
6. GACACATGACATTCTTCTCTCTTCTCTTTCGTTTTTCTCCCGGAGTCACCTAGTGCAG  15400 fluorescence intensity (a.u.)
7. ATCCCTCTGGTCGTCTCCTACCTCTCGGTTTCTTCACCCTCGGAGTCACCTAGTGCAG  14600 fluorescence intensity (a.u.)
8. TCACTTTACTCTCTCTCTCTCTCTCTCTCTCTCTCTCTCTCGGAGTCACCTAGTGCAG  14400 fluorescence intensity (a.u.)
9. CTACTTGTGCTGTGTCTTTGTTTTTCTTTCACATTTCTAGCGGAGTCACCTAGTGCAG  14300 fluorescence intensity (a.u.)
10. CGCTCGCACGGCCTCACCCGACCACCGCCACCGCACAAATCGGAGTCACCTAGTGCAG  13600 fluorescence intensity (a.u.)
11. TAAATGTTTAACGTTGTTGACTTTTTTAAACATGTTTGACCGGAGTCACCTAGTGCAG  13500 fluorescence intensity (a.u.)
12. GATTTCTCTCTCTCTCTTCTTTTGCAGGGAACTTAATTACCGGAGTCACCTAGTGCAG  12500 fluorescence intensity (a.u.)
13. CCACTCTTGTGCACGCCGCCGTATCTCACGCCCCTTCTTCCGGAGTCACCTAGTGCAG  12300 fluorescence intensity (a.u.)
14. CACTTGCCGCCACTGCCTTTCGCTGTATTTTGTTGGGATCCGGAGTCACCTAGTGCAG  12100 fluorescence intensity (a.u.)
15. GCTCTAATTAATTCCGCACTTGTTAATTTTTGATCTGCTACGGAGTCACCTAGTGCAG  12000 fluorescence intensity (a.u.)
16. TTAGGGGCGGTGGGTGGTTTTCGGCTGGGAAATCGCGGATCGGAGTCACCTAGTGCAG  11500 fluorescence intensity (a.u.)
17. CTTCTTTTTTTTTTCACCTTTTACATATCTGTCTTCGTCACGGAGTCACCTAGTGCAG  11400 fluorescence intensity (a.u.)
18. AAACCAACTTGCCATGCAACCTCTACGTATGTACACGCGTCGGAGTCACCTAGTGCAG  11400 fluorescence intensity (a.u.)
19. TTATCTATTAGTCCATTGTACATGCCCTCGTCTCTCTATCCGGAGTCACCTAGTGCAG  11200 fluorescence intensity (a.u.)
20. TGTATTTCGCCGGTTGCAATTTCGTCATCACTGCGGTTAGCGGAGTCACCTAGTGCAG  11000 fluorescence intensity (a.u.)
21. AATTATGCGCGACCAAATTCTTTTTGCACTGGGCGGGGCCCGGAGTCACCTAGTGCAG  10600 fluorescence intensity (a.u.)
22. GCCATTCCAGTCATTGGCATTGTTGTTTCCTGTCCACTGACGGAGTCACCTAGTGCAG  10500 fluorescence intensity (a.u.)
23. CCCCGCCGATCCTCGCCTGTCGACGACGTCCCGGCGCCGCCGGAGTCACCTAGTGCAG  10300 fluorescence intensity (a.u.)
24. AACGGTAACATCTTAATCCAACGGCTACTCTTCTGCGTGTCGGAGTCACCTAGTGCAG  10100 fluorescence intensity (a.u.)
25. AAGACGAACGGTCAAATATGTGCTAAAAAGTCAACGGTGTCGGAGTCACCTAGTGCAG  9990 fluorescence intensity (a.u.)
26. CTTCCCGCCGCCGCCACTGCCACGAACAGTTCGCTCACCGCGGAGTCACCTAGTGCAG  9980 fluorescence intensity (a.u.)
27. TGTTGTTATAGCTAATTATTATTCATGCCACTTATTTTTTCGGAGTCACCTAGTGCAG  9950 fluorescence intensity (a.u.)
28. CGGATAAACCTCATCATCTCATCATCTTCCCCGCCTTAATCGGAGTCACCTAGTGCAG  9860 fluorescence intensity (a.u.)
29. ATAGACTTATATCATTCCAATCGTTGTTACTAATATTTTTCGGAGTCACCTAGTGCAG  9820 fluorescence intensity (a.u.)
30. TCCTTCCACCCTTGAGGGTTTTTGTTCGGTCTTATCCGCTCGGAGTCACCTAGTGCAG  9760 fluorescence intensity (a.u.)
31. CCTTTTCAGCTTGTCTGTTTATTTGGCTCTTCTGTTTTTTCGGAGTCACCTAGTGCAG  9630 fluorescence intensity (a.u.)
32. AGGGGATCTGCGGCGGCGGCGGCGGCGGGGTGGTCGAGCGCGGAGTCACCTAGTGCAG  9580 fluorescence intensity (a.u.)
33. AGTTACCATCTGCTGATGACATCCAAAAACTGCCATCATTCGGAGTCACCTAGTGCAG  9440 fluorescence intensity (a.u.)
34. CAGTCCTAGTATATGCTGTTTGCGCAACTTGCCAACTTCTCGGAGTCACCTAGTGCAG  9380 fluorescence intensity (a.u.)
35. CGTAGGTAAGTAGGGTTATTATAGTTATTTGTGTATATATCGGAGTCACCTAGTGCAG  9300 fluorescence intensity (a.u.)
36. GGCCGCGTGCGTGTGTCCAAACCTTCTCCACGCATTTCCTCGGAGTCACCTAGTGCAG  9290 fluorescence intensity (a.u.)
37. CTTCATCACCGTCGCCTCACAACTACTACACCGACGCATCCGGAGTCACCTAGTGCAG  9250 fluorescence intensity (a.u.)
38. GGCGAACCCTCCTCCCTCCGTTCCACACGCCCCAGTTCCCCGGAGTCACCTAGTGCAG  9240 fluorescence intensity (a.u.)
39. CCGCATATATTCCCGTCGCCACCACGGCGCAACTGCGCGACGGAGTCACCTAGTGCAG  9100 fluorescence intensity (a.u.)
40. TATTTCCAGCACTGAAGACCATTGAAATGTTCCCCGTCAACGGAGTCACCTAGTGCAG  9090 fluorescence intensity (a.u.)
41. ATAGCCAGTATCCTCACCTCACCCACAGCCCACCAATCACCGGAGTCACCTAGTGCAG  9070 fluorescence intensity (a.u.)
42. GCTGCTCCTAACCCCTTACACAGCACACTAATCATTTGCTCGGAGTCACCTAGTGCAG  9060 fluorescence intensity (a.u.)
43. TATTCTAATTTGTTGTATCATATCCCATTCCGATCGTTTACGGAGTCACCTAGTGCAG  9030 fluorescence intensity (a.u.)
44. CTACAAATACCCACGTACTCTGCTGAGTTTTCGCACCTCTCGGAGTCACCTAGTGCAG  9000 fluorescence intensity (a.u.)
45. TCGTCTCTCATCTCTTCTATATGTGATTATAGCTGATTTACGGAGTCACCTAGTGCAG  8980 fluorescence intensity (a.u.)
46. TTGCCGTCGCCTCAACCACACCGACCAGCGTCACATCCAGCGGAGTCACCTAGTGCAG  8940 fluorescence intensity (a.u.)
47. CCCCTCAAACTTTTATATTTGTGACTATTGGATCGCCTTGCGGAGTCACCTAGTGCAG  8870 fluorescence intensity (a.u.)
48. ACACAGGGGAGGGGCGGCGATCTCCATTTGGCGAGGAGAGCGGAGTCACCTAGTGCAG  8810 fluorescence intensity (a.u.)
49. ATAATATGTGTCTTGGAGTCCGTGCTATAGCTGGCTACAACGGAGTCACCTAGTGCAG  8810 fluorescence intensity (a.u.)
50. CGTGTCCGAAAACCCCTTCCGACATCCGGTCAAACGTTCGCGGAGTCACCTAGTGCAG  8790 fluorescence intensity (a.u.)
51. CCCACCCAGCCTACCACCTAACCACAACGATCCAACCATACGGAGTCACCTAGTGCAG  8760 fluorescence intensity (a.u.)
52. ATCGCTTCTCTTCTTGAAGACGTCGTTTTGGCATCCCTTACGGAGTCACCTAGTGCAG  8720 fluorescence intensity (a.u.)
53. ATGCCGCGGTTTCTTCTCTTGGGCGTGTATTGTTGCACGACGGAGTCACCTAGTGCAG  8710 fluorescence intensity (a.u.)
54. CATTGATTTACTATTTCTTAACAAATCCCGGCCCATTTCTCGGAGTCACCTAGTGCAG  8680 fluorescence intensity (a.u.)
55. CCCCGCCTTTCTCGAGCTGCGGGTTGGGTTTGGCCACCCACGGAGTCACCTAGTGCAG  8660 fluorescence intensity (a.u.)
56. CACAGACTTCCTTGTTGATTCAAACAATACCGCACTTTCGCGGAGTCACCTAGTGCAG  8530 fluorescence intensity (a.u.)
57. TTTTATGTTCGGTTTCTGTCGATTCTCAATTCCCGGTCTGCGGAGTCACCTAGTGCAG  8490 fluorescence intensity (a.u.)
58. AGTACTACCGCTCCTCGTATCAGGTTATAAAACGTTTTGACGGAGTCACCTAGTGCAG  8490 fluorescence intensity (a.u.)
59. TTGAAGTTTTTGGCAGGGGTTAGTTTCGAAATAAGTTTTCCGGAGTCACCTAGTGCAG  8480 fluorescence intensity (a.u.)
60. TTTTTTCTAATCCTACGTTTTTCCATTCCTGCGATTCAAACGGAGTCACCTAGTGCAG  8460 fluorescence intensity (a.u.)
61. GGTGGAGTGGCGTGGCGAGGTGAGGAGGTGGCTGATCTCTCGGAGTCACCTAGTGCAG  8440 fluorescence intensity (a.u.)
62. TTCTTCATTTCTCCTCCTGTCTCTTTCATCCGCTTCCTTCCGGAGTCACCTAGTGCAG  8440 fluorescence intensity (a.u.)
63. TTGGATCTTTTTTAGTGCAATTCGATCGAGTTTTTTTTTACGGAGTCACCTAGTGCAG  8410 fluorescence intensity (a.u.)
64. CTCTTTCCCTATCCATCATACAACTACATTTATCTTTCTCCGGAGTCACCTAGTGCAG  8390 fluorescence intensity (a.u.)
65. CCCCATCACCTCCCTCACCGCGGCCTCCACCTCGCGCCGCCGGAGTCACCTAGTGCAG  8370 fluorescence intensity (a.u.)
66. TATGTACGCCTCAAACCGACATAAAGCATCCGTGTTGACCCGGAGTCACCTAGTGCAG  8340 fluorescence intensity (a.u.)
67. GTTTCTTTTCATACTTTGCTGCATCAATTGGTTTTGGCCTCGGAGTCACCTAGTGCAG  8300 fluorescence intensity (a.u.)
68. AGTTTTTTCCTTTTAATCTCCGACTTCACCGGGTTTTTTCCGGAGTCACCTAGTGCAG  8260 fluorescence intensity (a.u.)
69. ATTCTTTTGGTATTATAAACTCTGCATGGTATGTATAGGCCGGAGTCACCTAGTGCAG  8220 fluorescence intensity (a.u.)
70. CCACAGCCCTACATCCCAAAACCTTGCGCCATTAGCTCGGCGGAGTCACCTAGTGCAG  8210 fluorescence intensity (a.u.)
71. CTGGGTGGCTCATATTATTCTCAACGGGCTGTCGCTTTAACGGAGTCACCTAGTGCAG  8190 fluorescence intensity (a.u.)
72. ATCTACCACTATTTGAGATCATTTGGTTACGAAATCTTTTCGGAGTCACCTAGTGCAG  8170 fluorescence intensity (a.u.)
73. TCTCGCTTGTTCTTCTTCACTTTCACTTTTAAAAACTTCCCGGAGTCACCTAGTGCAG  8130 fluorescence intensity (a.u.)
74. GACGACGCCATTCCTTATGTCCTATATAAAGGAGTCTAATCGGAGTCACCTAGTGCAG  8120 fluorescence intensity (a.u.)
75. CGTCAATATCACCGATCACTTCCATTCGGCCATTTCCCACCGGAGTCACCTAGTGCAG  8120 fluorescence intensity (a.u.)
76. ATCTTGTTACATGATTGTTAGTCCTCATATTTTGTTTTTGCGGAGTCACCTAGTGCAG  8110 fluorescence intensity (a.u.)
77. TACTTTATGTGTGACTAACTTTTTTTAATTTTCTCATAAACGGAGTCACCTAGTGCAG  8100 fluorescence intensity (a.u.)
78. CTCTTATTTTTGTGTATTATACACCTCTATTTTTTATATACGGAGTCACCTAGTGCAG  8080 fluorescence intensity (a.u.)
79. GCCTTTTTCACCTTGTTGCCTAAATTAGCTCTCCCCGCTCCGGAGTCACCTAGTGCAG  8080 fluorescence intensity (a.u.)
80. TTTTTTTGTGTTTTGCAATTTTATGTTTTGCACTTATTTTCGGAGTCACCTAGTGCAG  8070 fluorescence intensity (a.u.)
81. GTTTATTTCACCGTCCAACTGTTATAAGCTGTTCTCATATCGGAGTCACCTAGTGCAG  8070 fluorescence intensity (a.u.)
82. TGTGTTAGCACGGTTTATCGTTTATACCCTTCACGAGTTGCGGAGTCACCTAGTGCAG  8050 fluorescence intensity (a.u.)
83. CCCCATCCGTCGCCGTGCTGCACTCCTCTGGCAGAAGAGCCGGAGTCACCTAGTGCAG  8050 fluorescence intensity (a.u.)
84. CCCAAACCTTATCTCCTGGAGTAGTCACCTCCACGAACCCCGGAGTCACCTAGTGCAG  8040 fluorescence intensity (a.u.)
